Results on nine molecules are retold here after publication PMC11178898, “A clade of receptor-like cytoplasmic kinases and 14-3-3 proteins coordinate inositol hexaphosphate accumulation” (Nature Communications, 2024).

These are yes or no findings as the source states them, for the method shown. Binding calls can cover weak binding; strength is not graded here. Tags and fused reporters may be left off the sequences shown. For some of these results: In cells and extracts the contact can be indirect.

The target of assay [1] is T1, GRF4, Split-LUC fusion (Arabidopsis thaliana) (UniProt P46077).
T1 sequence: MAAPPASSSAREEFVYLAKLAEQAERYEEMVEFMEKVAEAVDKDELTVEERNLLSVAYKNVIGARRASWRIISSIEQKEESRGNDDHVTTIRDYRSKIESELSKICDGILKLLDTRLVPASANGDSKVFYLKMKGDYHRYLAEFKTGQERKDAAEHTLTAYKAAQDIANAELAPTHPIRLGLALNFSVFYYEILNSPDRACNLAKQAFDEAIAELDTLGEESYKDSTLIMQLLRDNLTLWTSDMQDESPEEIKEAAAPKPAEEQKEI
Put plainly: split reporter; Split-LUC; X-nLUC and X-cLUC constructs co-infiltrated into tobacco leaves, LUC activity with D-luciferin; in Figs. 5a, 6f, 7c with or without IPCK1.

The target of assay [2] is IPCK1 N terminal (1-153 amino acids), BiFC fusion (Arabidopsis thaliana). As to the kind of experiment: split reporter; BiFC; constructs transiently expressed in Arabidopsis mesophyll protoplasts, confocal imaging.
Assay [3] has as its target IPCK1, BiFC fusion (Arabidopsis thaliana). Described as above.
Assay [4] addresses IPCK2, BiFC fusion (Arabidopsis thaliana). The assay is described as above.
Assay [5] has as its target IPCK3, BiFC fusion (Arabidopsis thaliana). The description is as above.
Assay [6] has as its target IPCK4, BiFC fusion (Arabidopsis thaliana). The description is as above.
For assay [7], the target named is IPCK5, BiFC fusion (Arabidopsis thaliana). The description is as above.
Assay [8] has as its target IPCK6, BiFC fusion (Arabidopsis thaliana). The description is as above.
In assay [9] the target is IPCK1 N terminal (1-153 amino acids), Split-LUC fusion (Arabidopsis thaliana). Put plainly: split reporter; Split-LUC; X-nLUC and X-cLUC constructs co-infiltrated into tobacco leaves, LUC activity with D-luciferin; in Figs. 5a, 6f, 7c with or without IPCK1.
The target in assay [10] is IPCK1, Split-LUC fusion (Arabidopsis thaliana). The assay is described as above.
The target of assay [11] is IPCK1-GST (Arabidopsis thaliana). As to the kind of experiment: pull-down; in vitro; GST- and HIS-tagged proteins from E. coli BL21 (DE3); bait on GST or Ni-NTA beads, incubated with the protein of the other tag on ice for 2 h, washed with PBS, blot with anti-HIS and anti-GST; both purified.

On to “IPK2β, Split-LUC fusion (Arabidopsis thaliana)”, for which, in [1], the binding entry was “binds”.

B1: IPK1, BiFC fusion (protein, UniProt Q93YN9 1-451)
chain: MEMILEEKDASDWIYRGEGGANLVLAYAGSSPLFVGKVIRIQKARRNDKAIKNANGVVSVLTSDEQHLWRENNELISSPNKEVLEQRYVKNVIIPLLGPKHVDAGVRVSVSKEFLECVDKKVTKQRPLWRVNAANVDTSHDSALILNDHSLFSQGISSGGDCISVEIKPKCGFLPTSRFIGKENMLKTSVSRFKMHQLLKLEYNEISEESEYDPLDLFSGSKESVLEAIKALYSTPQNNFRVFLNGSLILGGSGESTGRTSPEIGYAFEDALKGFIQSEDGHRTECFLQLVSDAVYGSGVLDRLLEIQKLDKLDIEGAIHSYYDLINQPCPICKEGKPLEAELSLHALPLDESLKIVKEYLIAATAKDCSIMISFQSRNAWDSEPSGDYVSLKPTNQTFDYKVHFIDLSLKPLKRMESYYKLDKKIISFYNRKQKAENTAEQIGNSKPSHS
Turning to B1, the binding entry in [2], in [3], in assay [4], in assay [5], in [6] and in [7] was “binds” in each case. Further, the binding result in assay [8] is reported as “binds”.

B2: IPK1, Split-LUC fusion (protein, UniProt Q93YN9 1-451)
chain: MEMILEEKDASDWIYRGEGGANLVLAYAGSSPLFVGKVIRIQKARRNDKAIKNANGVVSVLTSDEQHLWRENNELISSPNKEVLEQRYVKNVIIPLLGPKHVDAGVRVSVSKEFLECVDKKVTKQRPLWRVNAANVDTSHDSALILNDHSLFSQGISSGGDCISVEIKPKCGFLPTSRFIGKENMLKTSVSRFKMHQLLKLEYNEISEESEYDPLDLFSGSKESVLEAIKALYSTPQNNFRVFLNGSLILGGSGESTGRTSPEIGYAFEDALKGFIQSEDGHRTECFLQLVSDAVYGSGVLDRLLEIQKLDKLDIEGAIHSYYDLINQPCPICKEGKPLEAELSLHALPLDESLKIVKEYLIAATAKDCSIMISFQSRNAWDSEPSGDYVSLKPTNQTFDYKVHFIDLSLKPLKRMESYYKLDKKIISFYNRKQKAENTAEQIGNSKPSHS
For B2, the binding entry in assay [9] and in [10] was “binds” throughout.

B3: IPK1-HIS (enzyme, UniProt Q93YN9 1-451)
chain: MEMILEEKDASDWIYRGEGGANLVLAYAGSSPLFVGKVIRIQKARRNDKAIKNANGVVSVLTSDEQHLWRENNELISSPNKEVLEQRYVKNVIIPLLGPKHVDAGVRVSVSKEFLECVDKKVTKQRPLWRVNAANVDTSHDSALILNDHSLFSQGISSGGDCISVEIKPKCGFLPTSRFIGKENMLKTSVSRFKMHQLLKLEYNEISEESEYDPLDLFSGSKESVLEAIKALYSTPQNNFRVFLNGSLILGGSGESTGRTSPEIGYAFEDALKGFIQSEDGHRTECFLQLVSDAVYGSGVLDRLLEIQKLDKLDIEGAIHSYYDLINQPCPICKEGKPLEAELSLHALPLDESLKIVKEYLIAATAKDCSIMISFQSRNAWDSEPSGDYVSLKPTNQTFDYKVHFIDLSLKPLKRMESYYKLDKKIISFYNRKQKAENTAEQIGNSKPSHS
Turning to B3, the binding entry in [11] is “binds”.

B4: GRF4, BiFC fusion (protein, UniProt P46077 1-267)
chain: MAAPPASSSAREEFVYLAKLAEQAERYEEMVEFMEKVAEAVDKDELTVEERNLLSVAYKNVIGARRASWRIISSIEQKEESRGNDDHVTTIRDYRSKIESELSKICDGILKLLDTRLVPASANGDSKVFYLKMKGDYHRYLAEFKTGQERKDAAEHTLTAYKAAQDIANAELAPTHPIRLGLALNFSVFYYEILNSPDRACNLAKQAFDEAIAELDTLGEESYKDSTLIMQLLRDNLTLWTSDMQDESPEEIKEAAAPKPAEEQKEI
For the molecule B4, in assay [3], the binding entry is “binds”.

B5: GRF4, Split-LUC fusion (protein, UniProt P46077 1-267)
chain: MAAPPASSSAREEFVYLAKLAEQAERYEEMVEFMEKVAEAVDKDELTVEERNLLSVAYKNVIGARRASWRIISSIEQKEESRGNDDHVTTIRDYRSKIESELSKICDGILKLLDTRLVPASANGDSKVFYLKMKGDYHRYLAEFKTGQERKDAAEHTLTAYKAAQDIANAELAPTHPIRLGLALNFSVFYYEILNSPDRACNLAKQAFDEAIAELDTLGEESYKDSTLIMQLLRDNLTLWTSDMQDESPEEIKEAAAPKPAEEQKEI
Regarding B5, the binding entry in [10] was “binds”.

B6: GRF4-HIS (protein, UniProt P46077 1-267)
chain: MAAPPASSSAREEFVYLAKLAEQAERYEEMVEFMEKVAEAVDKDELTVEERNLLSVAYKNVIGARRASWRIISSIEQKEESRGNDDHVTTIRDYRSKIESELSKICDGILKLLDTRLVPASANGDSKVFYLKMKGDYHRYLAEFKTGQERKDAAEHTLTAYKAAQDIANAELAPTHPIRLGLALNFSVFYYEILNSPDRACNLAKQAFDEAIAELDTLGEESYKDSTLIMQLLRDNLTLWTSDMQDESPEEIKEAAAPKPAEEQKEI
As for B6, in [11], the binding result is on record as “binds”.

B7: PI-PLC2, BiFC fusion (protein, UniProt Q39033 1-581)
chain: MSKQTYKVCFCFRRRFRYTASEAPREIKTIFEKYSENGVMTVDHLHRFLIDVQKQDKATREDAQSIINSASSLLHRNGLHLDAFFKYLFGDNNPPLALHKVHHDMDAPISHYFIFTGHNSYLTGNQLSSDCSEVPIIDALKKGVRVIELDIWPNSNKDDIDVLHGMTLTTPVGLIKCLKAIRAHAFDVSDYPVVVTLEDHLTPDLQSKVAEMVTEIFGEILFTPPVGESLKEFPSPNSLKRRIIISTKPPKEYKEGKDVEVVQKGKDLGDEEVWGREVPSFIQRNKSEAKDDLDGNDDDDDDDDEDKSKINAPPQYKHLIAIHAGKPKGGITECLKVDPDKVRRLSLSEEQLEKAAEKYAKQIVRFTQHNLLRIYPKGTRVTSSNYNPLVGWSHGAQMVAFNMQGYGRSLWLMQGMFRANGGCGYIKKPDLLLKSGSDSDIFDPKATLPVKTTLRVTVYMGEGWYFDFRHTHFDQYSPPDFYTRVGIAGVPGDTVMKKTKTLEDNWIPAWDEVFEFPLTVPELALLRLEVHEYDMSEKDDFGGQTCLPVWELSEGIRAFPLHSRKGEKYKSVKLLVKVEFV
Turning to B7, the binding entry in assay [3] is “binds”.

B8: PI-PLC2, Split-LUC fusion (protein, UniProt Q39033 1-581)
chain: MSKQTYKVCFCFRRRFRYTASEAPREIKTIFEKYSENGVMTVDHLHRFLIDVQKQDKATREDAQSIINSASSLLHRNGLHLDAFFKYLFGDNNPPLALHKVHHDMDAPISHYFIFTGHNSYLTGNQLSSDCSEVPIIDALKKGVRVIELDIWPNSNKDDIDVLHGMTLTTPVGLIKCLKAIRAHAFDVSDYPVVVTLEDHLTPDLQSKVAEMVTEIFGEILFTPPVGESLKEFPSPNSLKRRIIISTKPPKEYKEGKDVEVVQKGKDLGDEEVWGREVPSFIQRNKSEAKDDLDGNDDDDDDDDEDKSKINAPPQYKHLIAIHAGKPKGGITECLKVDPDKVRRLSLSEEQLEKAAEKYAKQIVRFTQHNLLRIYPKGTRVTSSNYNPLVGWSHGAQMVAFNMQGYGRSLWLMQGMFRANGGCGYIKKPDLLLKSGSDSDIFDPKATLPVKTTLRVTVYMGEGWYFDFRHTHFDQYSPPDFYTRVGIAGVPGDTVMKKTKTLEDNWIPAWDEVFEFPLTVPELALLRLEVHEYDMSEKDDFGGQTCLPVWELSEGIRAFPLHSRKGEKYKSVKLLVKVEFV
With B8, in [10], the binding entry is reported as “binds”.
